Laboratory results from patent publication US8517736B2, “Method for alleviating the undesired side effects of dental bleaching” (Dr. Gunnar Rolla Consultant AS, priority 2011, dated 2013).

Experiment: SEM micrographs of bleached human tooth enamel surface

| SMILES | loss of mineral on the tooth surface after subsequent NaF treatment (SEM, FIG. 3) (tooth of FIG. 2 (Ca(OH)2 film) subsequently treated with 2% by weight NaF solution) | enamel surface appearance after calcium hydroxide treatment (SEM, FIG. 2) (bleached tooth of FIG. 1, Ca(OH)2 solution allowed to dry) |
| --- | --- | --- |
| [F-].[Na+] [NaF] | has been eliminated |  |
| [Ca+2].[OH-].[OH-] [Ca(OH)2, calcium hydroxide] |  | covered with a dehydrated film |
